Our source for the binding values is paper PMC8631662.

Sequences of proteins named here, by UniProt entry; tags and fusion partners are left off. Residues count along the entry.
UniProt P46096: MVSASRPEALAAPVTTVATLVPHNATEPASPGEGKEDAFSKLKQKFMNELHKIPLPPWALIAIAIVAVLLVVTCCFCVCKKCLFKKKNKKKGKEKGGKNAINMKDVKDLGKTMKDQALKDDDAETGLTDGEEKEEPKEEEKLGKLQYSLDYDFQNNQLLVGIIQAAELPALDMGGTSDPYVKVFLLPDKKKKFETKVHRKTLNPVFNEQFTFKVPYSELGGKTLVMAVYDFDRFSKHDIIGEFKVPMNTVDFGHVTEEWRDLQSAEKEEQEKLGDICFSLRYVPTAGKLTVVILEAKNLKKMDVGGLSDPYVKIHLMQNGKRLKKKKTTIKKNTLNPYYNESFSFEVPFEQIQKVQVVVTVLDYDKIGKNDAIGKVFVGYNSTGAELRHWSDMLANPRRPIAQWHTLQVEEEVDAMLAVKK
UniProt P60879: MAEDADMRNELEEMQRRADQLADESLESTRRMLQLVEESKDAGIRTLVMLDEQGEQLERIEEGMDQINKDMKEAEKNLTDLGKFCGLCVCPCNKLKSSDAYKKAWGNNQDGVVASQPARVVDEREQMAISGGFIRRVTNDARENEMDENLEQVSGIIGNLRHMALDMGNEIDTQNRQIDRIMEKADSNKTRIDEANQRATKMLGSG
UniProt Q9Z1G4: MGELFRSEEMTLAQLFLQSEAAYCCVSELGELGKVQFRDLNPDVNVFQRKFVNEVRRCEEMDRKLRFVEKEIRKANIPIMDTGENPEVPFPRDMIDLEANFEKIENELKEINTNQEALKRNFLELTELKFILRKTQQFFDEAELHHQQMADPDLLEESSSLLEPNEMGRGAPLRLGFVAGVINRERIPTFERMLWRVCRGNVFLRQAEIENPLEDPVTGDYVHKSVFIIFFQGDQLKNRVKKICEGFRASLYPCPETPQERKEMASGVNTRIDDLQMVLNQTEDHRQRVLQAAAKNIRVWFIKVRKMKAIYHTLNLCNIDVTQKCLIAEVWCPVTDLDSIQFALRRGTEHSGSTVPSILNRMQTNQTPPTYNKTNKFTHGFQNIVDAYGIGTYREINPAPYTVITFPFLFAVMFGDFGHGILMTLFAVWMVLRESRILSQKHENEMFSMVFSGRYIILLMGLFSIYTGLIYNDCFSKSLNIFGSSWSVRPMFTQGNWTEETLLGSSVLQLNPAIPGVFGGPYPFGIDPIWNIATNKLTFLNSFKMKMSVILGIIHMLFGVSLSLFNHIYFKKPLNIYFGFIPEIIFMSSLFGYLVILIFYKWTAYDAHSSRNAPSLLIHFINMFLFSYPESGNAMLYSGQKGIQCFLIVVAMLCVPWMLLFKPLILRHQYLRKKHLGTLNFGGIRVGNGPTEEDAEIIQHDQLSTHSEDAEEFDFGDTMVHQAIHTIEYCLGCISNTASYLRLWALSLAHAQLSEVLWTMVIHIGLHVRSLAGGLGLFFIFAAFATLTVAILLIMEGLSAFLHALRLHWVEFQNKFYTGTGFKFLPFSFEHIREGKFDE
UniProt P13595, residues 20-1115: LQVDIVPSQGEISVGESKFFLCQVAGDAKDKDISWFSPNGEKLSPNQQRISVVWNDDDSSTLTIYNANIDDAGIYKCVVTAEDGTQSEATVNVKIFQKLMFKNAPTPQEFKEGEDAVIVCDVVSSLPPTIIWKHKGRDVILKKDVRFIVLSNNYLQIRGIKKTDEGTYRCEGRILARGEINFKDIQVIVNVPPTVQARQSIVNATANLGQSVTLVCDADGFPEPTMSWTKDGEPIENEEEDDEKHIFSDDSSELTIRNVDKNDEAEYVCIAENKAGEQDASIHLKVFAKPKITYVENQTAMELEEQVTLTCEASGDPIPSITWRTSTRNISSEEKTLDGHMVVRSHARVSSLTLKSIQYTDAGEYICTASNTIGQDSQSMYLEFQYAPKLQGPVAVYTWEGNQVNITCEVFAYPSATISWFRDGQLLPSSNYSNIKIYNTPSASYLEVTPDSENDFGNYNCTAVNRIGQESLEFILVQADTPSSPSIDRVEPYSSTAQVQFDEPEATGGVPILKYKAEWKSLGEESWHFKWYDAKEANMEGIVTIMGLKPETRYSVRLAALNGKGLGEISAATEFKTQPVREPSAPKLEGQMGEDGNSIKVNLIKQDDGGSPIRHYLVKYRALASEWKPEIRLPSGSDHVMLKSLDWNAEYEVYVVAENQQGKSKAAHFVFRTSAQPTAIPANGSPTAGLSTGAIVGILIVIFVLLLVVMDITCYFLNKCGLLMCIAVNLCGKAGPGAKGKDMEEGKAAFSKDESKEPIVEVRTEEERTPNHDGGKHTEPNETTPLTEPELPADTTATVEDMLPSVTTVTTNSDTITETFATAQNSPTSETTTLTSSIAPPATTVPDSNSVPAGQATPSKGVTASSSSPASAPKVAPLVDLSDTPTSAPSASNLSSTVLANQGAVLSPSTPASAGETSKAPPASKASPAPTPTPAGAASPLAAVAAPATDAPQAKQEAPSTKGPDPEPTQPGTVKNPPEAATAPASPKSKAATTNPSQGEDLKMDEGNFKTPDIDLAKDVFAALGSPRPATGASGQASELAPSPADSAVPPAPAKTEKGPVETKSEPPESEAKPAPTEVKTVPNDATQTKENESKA
UniProt P17742: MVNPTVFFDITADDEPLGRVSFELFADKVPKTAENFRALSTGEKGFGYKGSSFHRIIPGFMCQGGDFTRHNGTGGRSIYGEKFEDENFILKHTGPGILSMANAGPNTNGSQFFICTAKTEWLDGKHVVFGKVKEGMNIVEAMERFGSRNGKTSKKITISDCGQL
UniProt G5E829: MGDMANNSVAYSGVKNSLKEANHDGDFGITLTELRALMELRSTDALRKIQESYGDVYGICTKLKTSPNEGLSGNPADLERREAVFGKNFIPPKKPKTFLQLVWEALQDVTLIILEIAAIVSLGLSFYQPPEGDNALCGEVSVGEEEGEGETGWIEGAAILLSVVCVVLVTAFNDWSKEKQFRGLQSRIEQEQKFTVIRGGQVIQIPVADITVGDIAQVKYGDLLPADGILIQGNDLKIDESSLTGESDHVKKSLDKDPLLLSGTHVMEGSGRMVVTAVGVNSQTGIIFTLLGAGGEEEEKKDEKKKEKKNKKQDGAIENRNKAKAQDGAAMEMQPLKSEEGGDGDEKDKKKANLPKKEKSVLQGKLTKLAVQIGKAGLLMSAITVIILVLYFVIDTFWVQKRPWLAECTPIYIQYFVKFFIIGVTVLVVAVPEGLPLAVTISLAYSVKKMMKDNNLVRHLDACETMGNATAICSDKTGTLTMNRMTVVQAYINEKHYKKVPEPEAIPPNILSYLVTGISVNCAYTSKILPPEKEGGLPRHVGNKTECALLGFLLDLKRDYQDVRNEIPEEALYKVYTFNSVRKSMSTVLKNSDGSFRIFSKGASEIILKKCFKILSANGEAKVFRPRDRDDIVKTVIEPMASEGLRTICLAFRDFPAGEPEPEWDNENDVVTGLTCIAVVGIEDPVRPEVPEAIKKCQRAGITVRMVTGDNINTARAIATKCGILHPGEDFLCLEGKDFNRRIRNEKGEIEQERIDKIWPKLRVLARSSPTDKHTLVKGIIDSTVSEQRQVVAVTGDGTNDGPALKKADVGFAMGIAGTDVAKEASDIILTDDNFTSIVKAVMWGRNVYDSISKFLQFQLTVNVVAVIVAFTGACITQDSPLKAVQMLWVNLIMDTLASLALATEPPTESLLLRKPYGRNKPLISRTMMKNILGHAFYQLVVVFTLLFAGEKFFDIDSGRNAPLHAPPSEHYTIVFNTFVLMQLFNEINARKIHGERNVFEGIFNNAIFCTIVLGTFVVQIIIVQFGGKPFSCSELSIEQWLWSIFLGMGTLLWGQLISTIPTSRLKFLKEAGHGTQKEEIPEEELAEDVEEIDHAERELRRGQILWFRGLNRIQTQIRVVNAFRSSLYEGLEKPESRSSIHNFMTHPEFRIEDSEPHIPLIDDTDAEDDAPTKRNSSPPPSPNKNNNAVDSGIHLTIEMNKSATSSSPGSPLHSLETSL
UniProt P61264: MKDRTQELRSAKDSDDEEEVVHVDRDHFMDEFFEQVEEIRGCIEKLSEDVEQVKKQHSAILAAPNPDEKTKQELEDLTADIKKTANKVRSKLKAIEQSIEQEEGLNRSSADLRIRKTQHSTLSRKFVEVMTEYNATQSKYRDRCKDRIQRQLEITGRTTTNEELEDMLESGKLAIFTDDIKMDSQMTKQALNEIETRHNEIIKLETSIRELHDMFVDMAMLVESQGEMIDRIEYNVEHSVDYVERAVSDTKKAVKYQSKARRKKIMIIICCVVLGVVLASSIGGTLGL
UniProt Q9R0K7: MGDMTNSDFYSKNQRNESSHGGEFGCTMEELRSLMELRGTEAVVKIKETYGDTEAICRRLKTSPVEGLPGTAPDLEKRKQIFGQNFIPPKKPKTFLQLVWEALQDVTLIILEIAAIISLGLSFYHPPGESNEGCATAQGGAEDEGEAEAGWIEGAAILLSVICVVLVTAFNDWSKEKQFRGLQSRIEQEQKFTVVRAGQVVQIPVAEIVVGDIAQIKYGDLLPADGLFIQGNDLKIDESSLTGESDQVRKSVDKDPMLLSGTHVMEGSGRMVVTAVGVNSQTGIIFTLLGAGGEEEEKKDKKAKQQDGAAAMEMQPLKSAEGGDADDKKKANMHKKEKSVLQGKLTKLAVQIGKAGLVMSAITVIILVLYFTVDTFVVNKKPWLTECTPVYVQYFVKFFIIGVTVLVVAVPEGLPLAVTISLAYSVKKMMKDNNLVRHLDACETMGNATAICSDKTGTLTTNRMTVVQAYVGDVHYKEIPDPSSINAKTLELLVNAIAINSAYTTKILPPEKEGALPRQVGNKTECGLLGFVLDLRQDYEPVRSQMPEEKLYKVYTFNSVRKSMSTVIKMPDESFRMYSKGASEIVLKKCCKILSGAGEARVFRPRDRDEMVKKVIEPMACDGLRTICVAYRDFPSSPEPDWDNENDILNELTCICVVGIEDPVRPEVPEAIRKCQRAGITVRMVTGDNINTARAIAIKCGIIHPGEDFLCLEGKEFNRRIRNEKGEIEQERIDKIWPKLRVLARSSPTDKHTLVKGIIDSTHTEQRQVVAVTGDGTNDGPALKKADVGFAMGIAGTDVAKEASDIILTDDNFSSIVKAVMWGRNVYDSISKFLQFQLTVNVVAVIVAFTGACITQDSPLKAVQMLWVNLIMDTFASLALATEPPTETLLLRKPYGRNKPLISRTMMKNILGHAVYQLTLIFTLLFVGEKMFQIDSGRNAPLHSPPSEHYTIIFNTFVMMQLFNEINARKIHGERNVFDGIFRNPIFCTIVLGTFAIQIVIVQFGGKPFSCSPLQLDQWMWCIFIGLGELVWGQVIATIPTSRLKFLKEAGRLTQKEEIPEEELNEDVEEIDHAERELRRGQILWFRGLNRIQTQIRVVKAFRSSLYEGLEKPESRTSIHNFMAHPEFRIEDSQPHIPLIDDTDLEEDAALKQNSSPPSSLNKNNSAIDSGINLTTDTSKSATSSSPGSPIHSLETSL
UniProt Q8BG39: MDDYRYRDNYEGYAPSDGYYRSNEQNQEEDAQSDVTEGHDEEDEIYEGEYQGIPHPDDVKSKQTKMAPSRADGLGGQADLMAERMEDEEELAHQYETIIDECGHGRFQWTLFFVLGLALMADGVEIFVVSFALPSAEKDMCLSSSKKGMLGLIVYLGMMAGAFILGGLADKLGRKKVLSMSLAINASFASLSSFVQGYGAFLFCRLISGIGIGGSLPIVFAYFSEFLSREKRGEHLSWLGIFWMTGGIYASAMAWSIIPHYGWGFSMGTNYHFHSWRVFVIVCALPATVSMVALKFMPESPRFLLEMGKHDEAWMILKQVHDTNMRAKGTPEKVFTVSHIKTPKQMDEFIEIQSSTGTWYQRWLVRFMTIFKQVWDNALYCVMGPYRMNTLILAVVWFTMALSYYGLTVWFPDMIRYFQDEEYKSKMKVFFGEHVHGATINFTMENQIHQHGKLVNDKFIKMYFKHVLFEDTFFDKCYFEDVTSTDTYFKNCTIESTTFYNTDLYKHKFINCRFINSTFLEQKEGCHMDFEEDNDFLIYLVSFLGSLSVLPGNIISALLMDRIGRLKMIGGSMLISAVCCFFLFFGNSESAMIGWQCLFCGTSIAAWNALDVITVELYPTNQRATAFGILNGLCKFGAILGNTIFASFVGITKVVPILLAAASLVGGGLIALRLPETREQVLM

The labels stand for the following.
B1: cell adhesion molecule 3 (protein, UniProt Q99N28 23-396)
chain: NLSQDDSQPWTSDETVVAGGTVVLKCQVKDHEDSSLQWSNPAQQTLYFGEKRALRDNRIQLVSSTPHELSISISNVALADEGEYTCSIFTMPVRTAKSLVTVLGIPQKPIITGYKSSLREKETATLNCQSSGSKPAAQLTWRKGDQELHGDQTRIQEDPNGKTFTVSSSVSFQVTREDDGANIVCSVNHESLKGADRSTSQRIEVLYTPTAMIRPEPAHPREGQKLLLHCEGRGNPVPQQYVWVKEGSEPPLKMTQESALIFPFLNKSDSGTYGCTATSNMGSYTAYFTLNVNDPSPVPSSSSTYHAIIGGIVAFIVFLLLILLIFLGHYLIRHKGTYLTHEAKGSDDAPDADTAIINAEGGQSGGDDKKEYFI
B2: myelin-associated glycoprotein (protein, UniProt P20917 20-627)
chain: GHWGAWMPSTISAFEGTCVSIPCRFDFPDELRPAVVHGVWYFNSPYPKNYPPVVFKSRTQVVHESFQGRSRLLGDLGLRNCTLLLSTLSPELGGKYYFRGDLGGYNQYTFSEHSVLDIVNTPNIVVPPEVVAGTEVEVSCMVPDNCPELRPELSWLGHEGLGEPTVLGRLREDEGTWVQVSLLHFVPTREANGHRLGCQAAFPNTTLQFEGYASLDVKYPPVIVEMNSSVEAIEGSHVSLLCGADSNPPPLLTWMRDGMVLREAVAKSLYLDLEEVTPGEDGVYACLAENAYGQDNRTVELSVMYAPWKPTVNGTVVAVEGETVSILCSTQSNPDPILTIFKEKQILATVIYESQLQLELPAVTPEDDGEYWCVAENQYGQRATAFNLSVEFAPIILLESHCAAARDTVQCLCVVKSNPEPSVAFELPSRNVTVNETEREFVYSERSGLLLTSILTIRGQAQAPPRVICTSRNLYGTQSLELPFQGAHRLMWAKIGPVGAVVAFAILIAIVCYITQTRRKKNVTESSSFSGGDNPHVLYSPEFRISGAPDKYESEKQRLGSERRLLGLRGESPELDLSYSHSDLGKRPTKDSYTLTEELAEYAEIRVK
B3: neurofascin (protein, UniProt Q810U3 25-1240)
chain: IEIPMDPSIQNELTQPPTITKQSVKDHIVDPRDNILIECEAKGNPAPSFHWTRNSRFFNIAKDPRVSMRRRSGTLVIDFRSGGRPEEYEGEYQCFARNKFGTALSNRIRLQVSKSPLWPKENLDPVVVQEGAPLTLQCNPPPGLPSPVIFWMSSSMEPITQDKRVSQGHNGDLYFSNVMLQDMQTDYSCNARFHFTHTIQQKNPFTLKVLTTRGVAERTPSFMYPQGTSSSQMVLRGMDLLLECIASGVPTPDIAWYKKGGDLPSNKAKFENFNKALRITNVSEEDSGEYFCLASNKMGSIRHTISVRVKAAPYWLDEPKNLILAPGEDGRLVCRANGNPKPTVQWMVNGEPLQSAPPNPNREVAGDTIIFRDTQISSRAVYQCNTSNEHGYLLANAFVSVLDVPPRMLSARNQLIRVILYNRTRLDCPFFGSPIPTLRWFKNGQGSNLDGGNYHVYENGSLEIKMIRKEDQGIYTCVATNILGKAENQVRLEVKDPTRIYRMPEDQVAKRGTTVQLECRVKHDPSLKLTVSWLKDDEPLYIGNRMKKEDDSLTIFGVAERDQGSYTCMASTELDQDLAKAYLTVLADQATPTNRLAALPKGRPDRPRDLELTDLAERSVRLTWIPGDDNNSPITDYVVQFEEDQFQPGVWHDHSRFPGSVNSAVLHLSPYVNYQFRVIAVNEVGSSHPSLPSERYRTSGAPPESNPSDVKGEGTRKNNMEITWTPMNATSAFGPNLRYIVKWRRRETRETWNNVTVWGSRYVVGQTPVYVPYEIRVQAENDFGKGPEPDTIIGYSGEDLPSAPRRFRVRQPNLETINLEWDHPEHPNGILIGYILRYVPFNGTKLGKQMVENFSPNQTKFSVQRADPVSRYRFSLSARTQVGSGEAATEESPAPPNEATPTAAPPTLPPTTVGTTGLVSSTDATALAATSEATTVPIIPTVVPTTVATTIATTTTTTAATTTTTTTESPPTTTAGTKIHETAPDEQSIWNVTVLPNSKWANITWKHNFRPGTDFVVEYIDSNHTKKTVPVKAQAQPIQLTDLFPGMTYTLRVYSRDNEGISSTVITFMTSTAYTNNQADIATQGWFIGLMCAIALLVLILLIVCFIKRSRGGKYPVREKKDVPLGPEDPKEEDGSFDYSDEDNKPLQGSQTSLDGTIKQQESDDSLVDYGEGGEGQFNEDGSFIGQYTVKKDKEETEGNESSEATSPVNAIYSLA
B4: immunoglobulin superfamily member 8 (protein, UniProt Q8R366 26-611)
chain: RQVHVPRGPLYRVAGTAVSISCNVSDYEGPAQQDFEWFMYRPEAPATSLGIVSTKDSQFSYAVFGPRVASGDLQVQRLKGDSVVLKIARLQAQDSGFYECYTPSTDTQYLGNYSAKVELRVLPDELQVSAAPPGPRGRQAATSPSRLTVHEGQELALGCLAQTKTKKHTHLSVSFGRAIPEAPVGRATLQEVVGLRSDMAVEAGAPYAERLASGELRLSKEGTDRYRMVVGGAQAGDSGTYHCTAAEWIQDPDGSWVQVAEKRAVLAHVDVQTLSSQLAVTVGPGERRIGPGEPLELLCNVSGALPPPGRHAAYSVGWEMAPAGAPGPGRLVAQLDTEGIGSLGPGYEDRHIAMEKVASRTYRLRLEAARPADAGTYRCLAKAYVRGSGTRLREAASARSRPLPVHVREEGVVLEAVAWLAGGTVYRGETASLLCNISVRGGPPGLRLAASWWVERPEEGELSSGPAQLVGGVGQDGVAELGVRPGGGPVSVELVGPRSHRLRLHGLGPEDEGIYHCAPSAWVQHADYSWYQAGSARSGPVTVYPYTHAVDTLFVPLLVGTGVALVTGASVLATITCCFMKRMRKR
B5: contactin-1 (protein, UniProt P12960 21-1001)
chain: DFTWHRRYGHGVSEEDKGFGPIFEEQPINTIYPEESLEGKVSLNCRARASPFPVYKWRMNNGDVDLTNDRYSMVGGNLVINNPDKQKDAGVYYCLASNNYGMVRSTEATLSFGYLDPFPPEERPEVKVKEGKGMVLLCDPPYHFPDDLSYRWLLNEFPVFITMDKRRFVSQTNGNLYIANVESSDRGNYSCFVSSPSITKSVFSKFIPLIPIPERTTKPYPADIVVQFKDIYTMMGQNVTLECFALGNPVPDIRWRKVLEPMPSTAEISTSGAVLKIFNIQLEDEGLYECEAENIRGKDKHQARIYVQAFPEWVEHINDTEVDIGSDLYWPCIATGKPIPTIRWLKNGYSYHKGELRLYDVTFENAGMYQCIAENAYGSIYANAELKILALAPTFEMNPMKKKILAAKGGRVIIECKPKAAPKPKFSWSKGTEWLVNSSRILIWEDGSLEINNITRNDGGIYTCFAENNRGKANSTGTLVITNPTRIILAPINADITVGENATMQCAASFDPALDLTFVWSFNGYVIDFNKEITHIHYQRNFMLDANGELLIRNAQLKHAGRYTCTAQTIVDNSSASADLVVRGPPGPPGGLRIEDIRATSVALTWSRGSDNHSPISKYTIQTKTILSDDWKDAKTDPPIIEGNMESAKAVDLIPWMEYEFRVVATNTLGTGEPSIPSNRIKTDGAAPNVAPSDVGGGGGTNRELTITWAPLSREYHYGNNFGYIVAFKPFDGEEWKKVTVTNPDTGRYVHKDETMTPSTAFQVKVKAFNNKGDGPYSLVAVINSAQDAPSEAPTEVGVKVLSSSEISVHWKHVLEKIVESYQIRYWAGHDKEAAAHRVQVTSQEYSARLENLLPDTQYFIEVGACNSAGCGPSSDVIETFTRKAPPSQPPRIISSVRSGSRYIITWDHVVALSNESTVTGYKILYRPDGQHDGKLFSTHKHSIEVPIPRDGEYVVEVRAHSDGGDGVVSQVKISGVSTLS
B6: Ncam2 (protein, UniProt O35136 20-837)
chain: LLQVTISLSKVELSVGESKFFTCTAIGEPESIDWYNPQGEKIISTQRVMLQKEGVRSRLTIYNANIEDAGIYRCQATDAKGQTQEATVVLEIYQKLTFREVVSPQEFKQGEDAEVVCRVSSSPAPAVSWLYHNEEVTTIPDNRFAVLANNNLQILNINKSDEGIYRCEGRVEARGEIDFRDIIVIVNVPPAIMMPQKSFNATAERGEEMTLTCKASGSPDPTISWFRNGKLIEENEKYILKGSNTELTVRNIINKDGGSYVCKATNKAGEDQKQAFLQVFVQPHILQLKNETTSENGHVTLVCEAEGEPVPEITWKRAIDGVMFSEGDKSPDGRIEVKGQHGRSSLHIRDVKLSDSGRYDCEAASRIGGHQRSMHLDIEYAPKFVSNQTMYYSWEGNPINISCDVTANPPASIHWRREKLLLPAKNTTHLKTHSVGRKMILEIAPTSDNDFGRYNCTATNRIGTRFQEYILELADVPSSPHGVKIIELSQTTAKISFNKPESHGGVPIHHYQVDVKEVASETWKIVRSHGVQTMVVLSSLEPNTTYEIRVAAVNGKGQGDYSKIEIFQTLPVREPSPPSIHGQPSSGKSFKISITKQDDGGAPILEYIVKYRSKDKEDQWLEKKVQGNKDHIILEHLQWTMGYEVQITAANRLGYSEPTVYEFSMPPKPNIIKDTLFNGLGLGAIIGLGVAALLLILVVTDVSCFFIRQCGLLMCITRRMCGKKSGSSGKSKELEEGKAAYLKDGSKEPIVEMRTEDERITNHEDGSPVNEPNETTPLTEPEKLPLKEENGKEVLNAETIEIKVSNDIIQSKEDDIKA

These are yes or no findings as the source states them, for the method shown. In cells and extracts the contact can be indirect. Here binding means that the protein was enriched with, or labelled near, the bait; the list need not be complete.

In the test the target is cellular prion protein (Major prion protein) (mouse (endogenous in brain)) (UniProt P04925). As to the kind of experiment: affinity purification with mass spectrometry.
Regarding Syt1 (from UniProt P46096 1-421), the binding entry was “binds”.
The result for Snap25 (from UniProt P60879 1-206) reads “binds”; that for Atp6v0a1 (from UniProt Q9Z1G4 1-839), “binds”.
With “excitatory amino acid transporter 2 (from UniProt P43006 1-572)”, the binding entry is on record as “binds”.
On to “neural cell adhesion molecule L1 (from UniProt P11627 20-1260)”, for which the binding result is recorded as “binds”.
The result for “neural cell adhesion molecule 1 (from UniProt P13595 20-1115)” reads “binds”.
As for “dipeptidyl peptidase Dpp10 (from UniProt Q6NXK7 1-797)”, the binding result is listed as “binds”.
Then “peptidyl-prolyl cis-trans isomerase A (from UniProt P17742 1-164)”, with “binds”; and “neuronal cell adhesion molecule (from UniProt Q810U4 30-1256)”, with “binds”.
Then “dipeptidyl peptidase Dpp6 (from UniProt Q9Z218 1-804)”, with “binds”.
Then “ubiquitin-like modifier-activating enzyme 1 (from UniProt Q02053 1-1058)”, with “binds”.
In the case of Atp2b1 (from UniProt G5E829 1-1220), the binding entry is “binds”.
The result for Stx1b (from UniProt P61264 1-288) reads “binds”; that for Atp2b2 (from UniProt Q9R0K7 1-1198), “binds”.
As for Sv2b (from UniProt Q8BG39 1-683), the binding entry is recorded as “binds”.
The result for B1 reads “binds”.
Consider B2, for which the binding result is “binds”.
Then B3, with “binds”; and B4, with “binds”; and B5, with “binds”.
Then B6, with “binds”.
